The text below walks through data of the supplement of paper PMC12819154, “High-throughput peptide-centric local stability assay extends protein–ligand identification to membrane proteins, tissues and bacteria” (Nature Structural & Molecular Biology, 2025).

By UniProt entry, the sequences of proteins in these tests, tags left out. Where a name states a change or a piece, a line headed by the entry shows the natural chain unless it says otherwise.
UniProt Q08050: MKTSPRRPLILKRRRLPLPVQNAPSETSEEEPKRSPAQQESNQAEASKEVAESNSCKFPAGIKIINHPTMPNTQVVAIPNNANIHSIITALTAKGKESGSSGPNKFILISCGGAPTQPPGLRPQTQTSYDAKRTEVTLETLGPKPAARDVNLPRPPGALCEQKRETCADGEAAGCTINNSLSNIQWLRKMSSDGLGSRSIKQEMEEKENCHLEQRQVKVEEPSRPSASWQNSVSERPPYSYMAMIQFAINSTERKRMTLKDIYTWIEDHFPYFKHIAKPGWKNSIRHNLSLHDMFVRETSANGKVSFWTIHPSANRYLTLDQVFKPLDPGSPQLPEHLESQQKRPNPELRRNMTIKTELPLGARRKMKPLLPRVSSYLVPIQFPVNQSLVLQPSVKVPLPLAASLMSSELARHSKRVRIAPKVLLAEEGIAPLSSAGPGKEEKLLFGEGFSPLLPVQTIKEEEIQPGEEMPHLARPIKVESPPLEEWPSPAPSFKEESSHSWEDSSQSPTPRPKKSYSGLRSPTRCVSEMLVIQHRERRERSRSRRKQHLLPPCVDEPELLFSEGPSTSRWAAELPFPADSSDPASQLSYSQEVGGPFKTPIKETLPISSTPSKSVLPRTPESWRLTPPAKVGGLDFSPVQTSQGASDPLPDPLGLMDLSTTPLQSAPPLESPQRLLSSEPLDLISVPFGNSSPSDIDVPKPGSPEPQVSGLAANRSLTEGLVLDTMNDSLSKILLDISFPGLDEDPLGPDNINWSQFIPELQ
UniProt Q00587: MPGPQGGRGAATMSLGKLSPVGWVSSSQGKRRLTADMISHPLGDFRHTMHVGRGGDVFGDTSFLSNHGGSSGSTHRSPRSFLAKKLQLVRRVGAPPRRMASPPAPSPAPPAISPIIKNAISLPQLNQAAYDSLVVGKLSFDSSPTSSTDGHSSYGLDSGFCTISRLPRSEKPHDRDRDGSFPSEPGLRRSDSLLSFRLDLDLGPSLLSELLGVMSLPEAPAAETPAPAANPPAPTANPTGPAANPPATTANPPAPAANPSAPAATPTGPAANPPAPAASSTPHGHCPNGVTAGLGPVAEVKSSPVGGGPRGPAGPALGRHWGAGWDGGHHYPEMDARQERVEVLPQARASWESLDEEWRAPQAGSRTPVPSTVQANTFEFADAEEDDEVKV
UniProt Q03154: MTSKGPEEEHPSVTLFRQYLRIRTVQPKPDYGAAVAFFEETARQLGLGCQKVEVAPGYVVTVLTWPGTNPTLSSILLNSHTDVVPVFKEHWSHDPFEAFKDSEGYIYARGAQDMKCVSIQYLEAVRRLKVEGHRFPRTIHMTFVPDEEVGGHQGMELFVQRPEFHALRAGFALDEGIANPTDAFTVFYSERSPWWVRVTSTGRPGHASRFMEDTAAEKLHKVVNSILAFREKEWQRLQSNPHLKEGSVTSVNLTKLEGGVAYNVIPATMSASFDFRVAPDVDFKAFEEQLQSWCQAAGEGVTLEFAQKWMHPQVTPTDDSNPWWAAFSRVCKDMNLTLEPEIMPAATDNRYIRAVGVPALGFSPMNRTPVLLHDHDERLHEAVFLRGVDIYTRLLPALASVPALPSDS
UniProt Q10713: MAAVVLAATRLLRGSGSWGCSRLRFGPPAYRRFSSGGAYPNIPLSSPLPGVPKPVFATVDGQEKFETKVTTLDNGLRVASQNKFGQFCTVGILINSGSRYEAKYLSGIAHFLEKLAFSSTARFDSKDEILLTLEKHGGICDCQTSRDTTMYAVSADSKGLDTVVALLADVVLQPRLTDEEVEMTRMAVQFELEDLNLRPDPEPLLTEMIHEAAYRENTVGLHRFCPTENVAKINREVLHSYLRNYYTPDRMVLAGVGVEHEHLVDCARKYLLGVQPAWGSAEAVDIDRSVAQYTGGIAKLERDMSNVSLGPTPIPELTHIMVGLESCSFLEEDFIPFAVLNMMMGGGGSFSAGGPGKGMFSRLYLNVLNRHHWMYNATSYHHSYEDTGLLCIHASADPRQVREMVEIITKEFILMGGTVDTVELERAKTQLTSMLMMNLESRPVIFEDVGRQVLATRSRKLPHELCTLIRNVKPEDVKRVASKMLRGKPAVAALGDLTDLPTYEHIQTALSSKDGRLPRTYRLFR
UniProt Q09019: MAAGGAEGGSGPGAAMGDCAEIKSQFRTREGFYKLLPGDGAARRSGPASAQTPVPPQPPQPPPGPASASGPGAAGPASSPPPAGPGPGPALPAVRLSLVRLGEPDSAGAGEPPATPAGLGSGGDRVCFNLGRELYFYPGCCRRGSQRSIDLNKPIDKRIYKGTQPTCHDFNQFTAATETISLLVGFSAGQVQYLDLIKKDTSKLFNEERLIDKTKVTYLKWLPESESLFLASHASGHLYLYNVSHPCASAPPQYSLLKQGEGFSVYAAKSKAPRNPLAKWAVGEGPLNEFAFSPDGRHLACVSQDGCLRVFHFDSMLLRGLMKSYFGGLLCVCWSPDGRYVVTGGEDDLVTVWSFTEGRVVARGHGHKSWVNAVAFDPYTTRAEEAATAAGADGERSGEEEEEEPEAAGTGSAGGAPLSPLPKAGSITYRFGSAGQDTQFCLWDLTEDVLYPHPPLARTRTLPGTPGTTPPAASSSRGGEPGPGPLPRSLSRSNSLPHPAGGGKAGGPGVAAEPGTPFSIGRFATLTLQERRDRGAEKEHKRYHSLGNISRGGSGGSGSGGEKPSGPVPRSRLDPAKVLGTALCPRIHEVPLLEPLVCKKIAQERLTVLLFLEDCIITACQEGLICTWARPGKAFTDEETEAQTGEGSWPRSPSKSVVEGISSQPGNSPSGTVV
UniProt Q04725: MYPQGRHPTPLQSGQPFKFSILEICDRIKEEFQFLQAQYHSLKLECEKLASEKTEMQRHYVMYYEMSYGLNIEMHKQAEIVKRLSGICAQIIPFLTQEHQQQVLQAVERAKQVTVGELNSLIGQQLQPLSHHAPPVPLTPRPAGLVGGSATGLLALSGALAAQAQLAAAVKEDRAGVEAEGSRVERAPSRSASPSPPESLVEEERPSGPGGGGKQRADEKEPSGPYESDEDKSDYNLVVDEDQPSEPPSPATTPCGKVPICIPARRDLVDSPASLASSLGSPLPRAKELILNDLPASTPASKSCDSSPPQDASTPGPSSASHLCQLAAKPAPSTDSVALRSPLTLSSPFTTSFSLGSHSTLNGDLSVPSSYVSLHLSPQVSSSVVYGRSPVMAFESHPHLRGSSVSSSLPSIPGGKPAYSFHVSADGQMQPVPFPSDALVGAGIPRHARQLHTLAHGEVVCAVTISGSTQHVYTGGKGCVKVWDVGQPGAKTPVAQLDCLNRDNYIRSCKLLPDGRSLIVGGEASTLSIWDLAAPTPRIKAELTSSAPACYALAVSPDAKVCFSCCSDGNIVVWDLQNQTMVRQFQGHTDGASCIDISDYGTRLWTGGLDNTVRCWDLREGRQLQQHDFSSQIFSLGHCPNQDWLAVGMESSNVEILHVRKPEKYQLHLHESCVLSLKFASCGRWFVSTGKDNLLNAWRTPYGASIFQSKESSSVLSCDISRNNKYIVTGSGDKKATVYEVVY
UniProt Q0VDG4: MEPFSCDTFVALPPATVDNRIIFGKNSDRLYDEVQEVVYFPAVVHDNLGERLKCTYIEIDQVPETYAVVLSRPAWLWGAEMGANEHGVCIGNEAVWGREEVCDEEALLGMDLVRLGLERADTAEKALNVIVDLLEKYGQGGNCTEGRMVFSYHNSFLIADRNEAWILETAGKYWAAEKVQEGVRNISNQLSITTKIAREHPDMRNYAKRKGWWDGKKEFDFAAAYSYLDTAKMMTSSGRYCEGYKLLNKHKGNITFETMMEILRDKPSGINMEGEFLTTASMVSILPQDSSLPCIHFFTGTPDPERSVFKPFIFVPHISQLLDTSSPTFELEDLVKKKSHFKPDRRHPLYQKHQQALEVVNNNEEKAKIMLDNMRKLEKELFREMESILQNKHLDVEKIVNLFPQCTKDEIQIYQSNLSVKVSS
UniProt Q13009: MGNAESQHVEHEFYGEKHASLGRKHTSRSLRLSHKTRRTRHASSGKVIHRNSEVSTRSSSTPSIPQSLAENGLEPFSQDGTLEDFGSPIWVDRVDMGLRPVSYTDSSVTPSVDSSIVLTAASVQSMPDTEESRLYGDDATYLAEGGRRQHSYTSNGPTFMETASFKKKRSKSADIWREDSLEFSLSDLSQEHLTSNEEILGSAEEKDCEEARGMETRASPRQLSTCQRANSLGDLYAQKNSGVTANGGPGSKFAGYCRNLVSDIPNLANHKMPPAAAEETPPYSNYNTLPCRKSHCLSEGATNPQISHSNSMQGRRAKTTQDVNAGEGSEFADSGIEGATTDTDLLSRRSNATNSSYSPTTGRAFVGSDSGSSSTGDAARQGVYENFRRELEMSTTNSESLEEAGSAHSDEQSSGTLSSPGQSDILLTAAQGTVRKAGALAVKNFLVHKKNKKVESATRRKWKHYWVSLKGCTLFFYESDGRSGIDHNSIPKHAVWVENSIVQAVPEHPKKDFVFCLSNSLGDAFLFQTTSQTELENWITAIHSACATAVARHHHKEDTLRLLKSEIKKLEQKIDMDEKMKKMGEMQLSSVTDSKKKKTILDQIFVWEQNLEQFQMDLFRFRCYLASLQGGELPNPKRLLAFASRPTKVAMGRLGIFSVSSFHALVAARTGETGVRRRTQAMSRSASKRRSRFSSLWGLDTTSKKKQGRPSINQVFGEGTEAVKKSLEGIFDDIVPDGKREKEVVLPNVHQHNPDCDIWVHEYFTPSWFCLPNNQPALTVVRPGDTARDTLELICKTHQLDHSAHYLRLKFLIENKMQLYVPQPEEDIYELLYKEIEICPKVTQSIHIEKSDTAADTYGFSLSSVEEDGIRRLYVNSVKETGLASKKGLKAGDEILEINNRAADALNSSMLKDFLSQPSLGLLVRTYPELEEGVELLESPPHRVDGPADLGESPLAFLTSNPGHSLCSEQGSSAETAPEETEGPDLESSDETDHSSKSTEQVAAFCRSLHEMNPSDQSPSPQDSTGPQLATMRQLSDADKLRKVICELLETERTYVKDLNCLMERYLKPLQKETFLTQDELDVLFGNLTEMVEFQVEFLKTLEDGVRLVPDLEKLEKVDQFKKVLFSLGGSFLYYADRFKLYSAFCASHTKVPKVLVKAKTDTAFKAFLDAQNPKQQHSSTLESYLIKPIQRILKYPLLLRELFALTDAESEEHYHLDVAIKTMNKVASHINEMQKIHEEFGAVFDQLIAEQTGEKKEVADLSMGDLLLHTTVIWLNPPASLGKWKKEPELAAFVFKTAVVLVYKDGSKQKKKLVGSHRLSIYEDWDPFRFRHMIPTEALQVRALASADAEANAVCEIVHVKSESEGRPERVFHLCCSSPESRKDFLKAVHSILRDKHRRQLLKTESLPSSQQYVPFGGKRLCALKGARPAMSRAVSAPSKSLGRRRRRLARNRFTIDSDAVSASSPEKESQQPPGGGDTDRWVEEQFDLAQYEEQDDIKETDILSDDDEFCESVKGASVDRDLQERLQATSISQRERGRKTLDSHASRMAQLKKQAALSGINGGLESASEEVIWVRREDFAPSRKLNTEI

Some of the results follow. Small differences around the control level are noise.

Compound in the test: Cc1nc(Nc2ncc(C(=O)Nc3c(C)cccc3Cl)s2)cc(N2CCN(CCO)CC2)n1 [dasatinib]
Nature of the test: log2 fold change of tryptic peptide abundance, ligand vs vehicle (limited proteolysis) (log2 ratio); higher = more trypsin-susceptible (destabilized). As to conditions: ligand concentration: 5 uM; sample: K562 cleared lysate.
For the target “UniProt Q08050 (peptide sequence: HNLSLHDMFVR, peptide start residue: 287)”, the log2 fold change is -0.243.

Consider “CDC42EP1 (peptide sequence: DGSFPSEPGLR, peptide start residue: 178) (UniProt Q00587)”, for which the log2 fold change was -0.23.

Take “ACY1 (peptide sequence: VVNSILAFR, peptide start residue: 222) (UniProt Q03154)”: the log2 fold change was 0.0883.

With “PMPCA (peptide sequence: SVAQYTGGIAKLER, peptide start residue: 289) (UniProt Q10713)”, the log2 fold change was -0.969.

“DMWD (peptide sequence: GGSGGSGSGGEKPSGPVPR, peptide start residue: 552) (UniProt Q09019)”: the log2 fold change was 0.214.

Take “TLE2 (peptide sequence: SPVMAFESHPHLR, peptide start residue: 389) (UniProt Q04725)”: the log2 fold change was -0.156.

Take “SCRN3 (peptide sequence: KGWWDGKK, peptide start residue: 210) (UniProt Q0VDG4)”: the log2 fold change was -0.695.

For “UniProt Q13009 (peptide sequence: AVSAPSK, peptide start residue: 1435)”, the log2 fold change is -0.0453.
